PubChem BioAssay AID652272, Drosophila RNAi Screening Center, 2013
The screen tested about 21,000 reagents; shown is a random part of those with a known target gene and a result. In the full data, 503 (2.4%) are marked active. 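Raw plate light values, not normalised; calls rest on replicate z-scores that were not deposited; hits include reporter decreases as well as increases.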 Entries without a mark were called inactive. The numbers tell different reagents against one gene apart. Not stated in the record: the amount of reagent, the time to read-out.

Aim: 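Genes whose knock-down decreases or increases Hedgehog reporter output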 (primary screen)
Cell system: Drosophila clone 8 (Cl8) cells
Knock-down reagent: long dsRNA against Drosophila genes
Detection: 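Firefly light from a Hedgehog-responsive ptc promoter reporter and Renilla reference light, both read on a plate reader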
Direction: firefly Hh reporter signal: higher = more ptc reporter light; Renilla reference signal: higher = more Renilla control light
Hit rule: 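Called a hit if the two-replicate mean z-score lies below -2 or above +3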
Calls: active = hit: reporter lowered or raised; inactive = not a hit

| gene | dsRNA no. | firefly Hh reporter signal, replicate 1 | firefly Hh reporter signal, replicate 2 | firefly Hh reporter signal, replicate 3 | Renilla reference signal, replicate 1 | Renilla reference signal, replicate 2 |
| --- | --- | --- | --- | --- | --- | --- |
| ckn (GeneID 36673) | 1 | 1.03e5 | 53961 | – | 4226 | 1650 |
| Rel (GeneID 41087) | 1 | 1.18e5 | 75133 | – | 4803 | 2923 |
| CG15362 (GeneID 33371) | 1 | 1.12e5 | 1.25e5 | – | 2742 | 2444 |
| Cog3 (GeneID 33562) | 1 | 84393 | 35558 | – | 4086 | 2108 |
| mino (GeneID 43350) | 1 | 81568 | 74112 | – | 1732 | 2089 |
| Nepl4 (GeneID 33889) | 1 | 86090 | 73398 | – | 2796 | 2715 |
| upd3 (GeneID 3346149) | 1 | 78611 | 2.54e5 | – | 2139 | 10971 |
| upd3 (GeneID 3346149) | 2 | 1.17e5 | 3.61e5 | – | 3475 | 13973 |
| CG4669 (GeneID 38608) | 1 | 1.29e5 | 76668 | – | 4613 | 2779 |
| GstE8 (GeneID 37113) | 1 | 1.28e5 | 1.07e5 | – | 6528 | 4608 |
| CG11788 (GeneID 37295) | 1 | 61354 | 42194 | – | 1772 | 3031 |
| CG15172 (GeneID 35167) | 1 | 92573 | 47778 | – | 2400 | 4314 |
| MED17 (GeneID 42175) | 1 | 1.21e5 | 1.24e5 | – | 4486 | 4018 |
| CG11251 (GeneID 39490) | 1 | 84989 | 37098 | 42114 | 1792 | 2870 |
| Ent3 (GeneID 39461) | 1 | 1.01e5 | 46162 | – | 4082 | 1408 |
| sno (GeneID 32273) | 1 | 1.09e5 | 96532 | – | 2023 | 2231 |
| EMC4 (GeneID 40505) | 1 | 57491 | 92392 | – | 1666 | 2455 |
| CG12857 (GeneID 36642) | 1 | 65985 | 50739 | – | 1501 | 3324 |
| brv1 (GeneID 40116) | 1 | 1.03e5 | 79270 | – | 3617 | 1872 |
| CG6015 (GeneID 42593) | 1 | 59013 (active) | 51395 | – | 4787 | 3889 |
| CG8372 (GeneID 34121) | 1 | 82464 | 56416 | – | 4179 | 2673 |
| Klp68D (GeneID 39332) | 1 | 72773 | 44848 | – | 3146 | 2220 |
| CG32199 (GeneID 40028) | 1 | 1.05e5 | – | – | 4395 | 2928 |
| su(r) (GeneID 31858) | 1 | 70429 | 48721 | – | 1804 | 1384 |
| CG10853 (GeneID 38465) | 1 | 1.18e5 | 67650 | – | 2886 | 4501 |
| tefu (GeneID 41839) | 1 | 58225 | 75180 | – | 2280 | 2195 |
| Odj (GeneID 42145) | 1 | 1.61e5 | 86315 | – | 6417 | 3613 |
| ninaC (GeneID 34012) | 1 | 33868 | 73141 | – | 2000 | 2712 |
| CG43367 (GeneID 38505) | 1 | 81008 | 54899 | – | 2340 | 3917 |
| CG43367 (GeneID 38505) | 2 | 78352 | 41605 | – | 2395 | 3067 |
| CG43367 (GeneID 38505) | 3 | 93744 | 34544 | – | 2833 | 263 |
| sano (GeneID 37185) | 1 | 1.13e5 | 76902 | – | 4509 | 2945 |
| RIOK2 (GeneID 43046) | 1 | 5.25e5 | 74912 | – | 29764 | 2419 |
| CG34377 (GeneID 42608) | 1 | 50453 | 2.31e5 | – | 11202 | 5144 |
| CG34377 (GeneID 42608) | 2 | 8.42e5 | 1.85e5 | – | 41898 | 4912 |
| CG34377 (GeneID 42608) | 3 | 8.18e5 | 1.76e5 | – | 42528 | 3000 |
| CG34377 (GeneID 42608) | 4 | 8.30e5 | 1.90e5 | – | 39992 | 3600 |
| CG34377 (GeneID 42608) | 5 | 7.95e5 | 2.08e5 | – | 40032 | 4800 |
| CG9222 (GeneID 33867) | 1 | 1.06e5 | 55018 | – | 2657 | 5444 |
| CG4020 (GeneID 31522) | 1 | 76816 | 1.72e5 | – | 2935 | 6756 |
| vkg (GeneID 33726) | 1 | 1.07e5 | 57568 | – | 2482 | 5764 |
| CG14113 (GeneID 50287) | 1 | 30729 | 54690 | 47628 | 4864 | 3315 |
| Rbfox1 (GeneID 39198) | 1 | 7.71e5 | 1.73e5 | 1.21e5 | 5825 | 4961 |
| Rbfox1 (GeneID 39198) | 2 | 33093 | 67121 | 2.34e5 | 5681 | 930 |
| Rbfox1 (GeneID 39198) | 3 | 4598 | 32356 | 38387 | 3288 | 3657 |
| CG14151 (GeneID 39201) | 1 | 93307 | 65351 | 60870 | 4521 | 4852 |
| CG13693 (GeneID 33187) | 1 | 1.75e5 | 1.17e5 | – | 3909 | 3329 |
| spi (GeneID 35253) | 1 | 78099 | 40940 | – | 1467 | 3644 |
| CG33181 (GeneID 318916) | 1 | 71977 | 2.05e5 | – | 2928 | 8144 |
| tll (GeneID 43656) | 1 | 94169 | 1.48e5 | – | 2426 | 6267 |
| Fbp1 (GeneID 39566) | 1 | 76496 | – | – | 2573 | 2113 |
| xmas-1 (retired record) (GeneID 44660) | 1 | 68221 | 2.18e5 | – | 2055 | 8181 |
| dop (GeneID 39686) | 1 | 80786 | 32521 | – | 2806 | 1296 |
| Drip (GeneID 36236) | 1 | 96427 | 81920 | – | 2249 | 5347 |
| rst (GeneID 31290) | 1 | 4.87e5 | 1.70e5 | – | 25788 | 3845 |
| rst (GeneID 31290) | 2 | 1.24e5 | 3.08e5 | – | 5313 | 11722 |
| anchor (GeneID 39965) | 1 | 93883 | 66246 | – | 4091 | 2749 |

Already shown: 7 of the entries above.
| gene | dsRNA no. | firefly Hh reporter signal, replicate 1 | firefly Hh reporter signal, replicate 2 | firefly Hh reporter signal, replicate 3 | Renilla reference signal, replicate 1 | Renilla reference signal, replicate 2 |
| --- | --- | --- | --- | --- | --- | --- |
| Cog3 (GeneID 33562) | 1 | 84393 | 35558 | – | 4086 | 2108 |
| mino (GeneID 43350) | 1 | 81568 | 74112 | – | 1732 | 2089 |
| Nepl4 (GeneID 33889) | 1 | 86090 | 73398 | – | 2796 | 2715 |
| upd3 (GeneID 3346149) | 1 | 78611 | 2.54e5 | – | 2139 | 10971 |
| upd3 (GeneID 3346149) | 2 | 1.17e5 | 3.61e5 | – | 3475 | 13973 |
| CG4669 (GeneID 38608) | 1 | 1.29e5 | 76668 | – | 4613 | 2779 |
| GstE8 (GeneID 37113) | 1 | 1.28e5 | 1.07e5 | – | 6528 | 4608 |
